Laboratory results as given in doi:10.1101/2020.02.13.946640 (bioRxiv, 2020).
Read-outs that look alike come from different tables or passages of the source. These are yes or no findings as the source states them, for the method shown. Some results given as binding are weak or reduced against the parent protein; the word gives no strength.

How the values were obtained:
[1] = target: T1, a subunit of Thermus thermophilus V/A-ATPase (Thermus thermophilus) (UniProt Q5SIT6); test: cryo-EM structure
T1 sequence: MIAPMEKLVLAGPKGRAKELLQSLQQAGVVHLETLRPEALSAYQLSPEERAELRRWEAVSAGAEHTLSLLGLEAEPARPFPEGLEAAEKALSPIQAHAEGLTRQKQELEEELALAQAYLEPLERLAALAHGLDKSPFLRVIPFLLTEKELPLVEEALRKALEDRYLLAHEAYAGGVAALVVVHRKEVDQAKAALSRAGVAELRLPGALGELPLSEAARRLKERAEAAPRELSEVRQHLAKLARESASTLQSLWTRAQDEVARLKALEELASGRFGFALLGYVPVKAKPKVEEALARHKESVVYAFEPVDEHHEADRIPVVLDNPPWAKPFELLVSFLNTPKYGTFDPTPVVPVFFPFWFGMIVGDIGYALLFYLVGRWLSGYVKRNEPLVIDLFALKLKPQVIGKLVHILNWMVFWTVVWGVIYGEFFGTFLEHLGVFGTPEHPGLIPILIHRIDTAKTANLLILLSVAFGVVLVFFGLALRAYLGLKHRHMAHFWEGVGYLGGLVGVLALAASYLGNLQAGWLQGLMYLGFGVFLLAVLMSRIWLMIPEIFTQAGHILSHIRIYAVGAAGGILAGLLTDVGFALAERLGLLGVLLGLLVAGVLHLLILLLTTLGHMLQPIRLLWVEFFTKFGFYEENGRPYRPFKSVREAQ

[2] = target: T1, a subunit of Thermus thermophilus V/A-ATPase (Thermus thermophilus); test: cryo-EM structure; remark: listed apart in the source

B1: EG peripheral stalk of Thermus thermophilus V/A-ATPase (complex, UniProt P74901 1-188; Q5SIT5 1-120)
chain 1: MSKLEAILSQEVEAEIQALLQEAEAKAEAVKREAEEKAKALLQARERALEAQYRAALRRAESAGELLVATARTQARGEVLEEVRRRVREALEALPQKPEWPEVVRKLALEALEALPGAKALVANPEDLPHLEALARERGVELQAEPALRLGVRAVGAEGKTQVENSLLARLDRAWDALSSKVAQALWG
chain 2: MTGGLVLNAISRAGGAMGGLGLIKSLAEKEKQLLERLEAAKKEAEERVKRAEAEAKALLEEAEAKAKALEAQYRERERAETEALLARYRERAEAEAKAVREKAMARLDEAVALVLKEVLP
- binding [1]: binds
- binding [2]: binds
